PubChem BioAssay AID602196 | INSERM – 2012
The whole screen tested about 23,000 reagents; this is a part drawn at random. Over the whole deposit, 455 (2%) are marked active. 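Active includes both protection and sensitisation; some change values fall well beyond the stated -50 to +50 range.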 Not all columns of the deposit are shown. Not stated in the record: the amount of reagent.

- Purpose: 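Modifiers of cisplatin sensitivity in A549 cells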
- Cells: human A549 lung cancer cells
- Reagent: siRNA pair against human genes
- Timing: 48 h transfection before cisplatin; time from cisplatin to read-out not stated
- Challenge: cisplatin at a dose killing half of control-siRNA cells; exact dose and duration not given
- Read-out: 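Shift in cisplatin death relative to control siRNA, from -50 (all cells die) to +50 (no cells die); siRNAs harmful on their own scored 0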
- Reading the numbers: two-siRNA summed score (-2 to +2): higher = both siRNAs protect from cisplatin killing; -2 means both sensitise; mean protection from cisplatin (shift in death): higher = protection from cisplatin killing
- Call rule: 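siRNAs harmful alone (LDH or WST-1) get 0; others get +1 for less and -1 for more cisplatin killing; genes are active when the two siRNAs give the same sign, summing to ±2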
- Calls: active = both siRNAs shift cisplatin killing the same way; inactive = no consistent shift, or siRNA harmful alone

gene,two-siRNA summed score (-2 to +2),mean protection from cisplatin (shift in death) (%),outcome
FLJ20618,1,0.6,inactive
LOC440496,0,-0.3,inactive
ADAMTS16,0,1.7,inactive
ATP11AUN,1,13.6,inactive
OR5F1,0,1.6,inactive
PSMD10,0,-3.2,inactive
CACNA1B,0,-3.9,inactive
LOC388526,0,10.8,inactive
LOC440684,1,9.4,inactive
LOC441475,0,4.1,inactive
LOC338949,0,1.6,inactive
DHX38,0,1.3,inactive
ACTR6,0,-2.7,inactive
RALB,0,-3.1,inactive
TESC,-1,-10.9,inactive
CFAP206,0,3.9,inactive
NME4,0,-1.7,inactive
COIL,0,-11.2,inactive
LOC340518,0,29.3,inactive
NDP,-1,-14.2,inactive
UGT2B28,0,7.6,inactive
LOC346887,0,7.3,inactive
MEN1,-1,-12.1,inactive
SPACA9,0,1.2,inactive
RETNLB,-2,-17.9,active
LOC339977,0,0.4,inactive
CRIP1,1,3.9,inactive
MYH15,1,9.8,inactive
OR51L1,1,9.8,inactive
SLC6A9,0,0.1,inactive
SFXN5,0,6.7,inactive
CRABP2,0,2.2,inactive
CDK2,0,-3,inactive
CILP,0,1.2,inactive
C3orf36,0,-0.5,inactive
LOC388617,0,-5.4,inactive
RASGEF1C,0,-1.5,inactive
USP6NL,0,5,inactive
TIPE2,0,5.9,inactive

Reprinted from the listing for reference:
gene,two-siRNA summed score (-2 to +2),mean protection from cisplatin (shift in death) (%),outcome
LOC346887,0,7.3,inactive
MEN1,-1,-12.1,inactive
SPACA9,0,1.2,inactive
RETNLB,-2,-17.9,active
